According to paper PMC8973694:
These are yes or no findings as the source states them, for the method shown. Binding seen in cells or lysates may run through a third protein. Some entries that bind do so weakly or less than the wild type.

Chains of the proteins cited; added tags and fusions are not shown. Residues count along the entry.
UniProt O60603: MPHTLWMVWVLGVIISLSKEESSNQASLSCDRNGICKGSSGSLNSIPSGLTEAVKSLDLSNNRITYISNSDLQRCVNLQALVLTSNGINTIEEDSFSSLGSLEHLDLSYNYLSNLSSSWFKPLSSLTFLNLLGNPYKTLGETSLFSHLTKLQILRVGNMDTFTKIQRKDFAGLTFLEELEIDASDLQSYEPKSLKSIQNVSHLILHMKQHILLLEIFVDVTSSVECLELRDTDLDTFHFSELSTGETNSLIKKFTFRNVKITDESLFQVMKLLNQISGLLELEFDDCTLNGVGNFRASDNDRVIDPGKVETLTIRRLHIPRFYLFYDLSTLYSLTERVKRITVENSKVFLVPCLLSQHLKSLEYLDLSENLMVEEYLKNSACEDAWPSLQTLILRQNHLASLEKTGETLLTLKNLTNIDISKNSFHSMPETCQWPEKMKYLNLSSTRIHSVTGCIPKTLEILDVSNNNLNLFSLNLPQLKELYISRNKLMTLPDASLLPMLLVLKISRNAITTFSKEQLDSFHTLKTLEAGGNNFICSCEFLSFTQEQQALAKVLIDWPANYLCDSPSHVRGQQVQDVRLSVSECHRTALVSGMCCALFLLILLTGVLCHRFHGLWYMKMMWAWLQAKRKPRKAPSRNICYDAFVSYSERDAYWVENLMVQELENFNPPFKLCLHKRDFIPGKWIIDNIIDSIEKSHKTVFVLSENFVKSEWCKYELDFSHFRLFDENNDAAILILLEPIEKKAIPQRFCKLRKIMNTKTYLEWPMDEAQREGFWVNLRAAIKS
UniProt O00206, residues 24-839: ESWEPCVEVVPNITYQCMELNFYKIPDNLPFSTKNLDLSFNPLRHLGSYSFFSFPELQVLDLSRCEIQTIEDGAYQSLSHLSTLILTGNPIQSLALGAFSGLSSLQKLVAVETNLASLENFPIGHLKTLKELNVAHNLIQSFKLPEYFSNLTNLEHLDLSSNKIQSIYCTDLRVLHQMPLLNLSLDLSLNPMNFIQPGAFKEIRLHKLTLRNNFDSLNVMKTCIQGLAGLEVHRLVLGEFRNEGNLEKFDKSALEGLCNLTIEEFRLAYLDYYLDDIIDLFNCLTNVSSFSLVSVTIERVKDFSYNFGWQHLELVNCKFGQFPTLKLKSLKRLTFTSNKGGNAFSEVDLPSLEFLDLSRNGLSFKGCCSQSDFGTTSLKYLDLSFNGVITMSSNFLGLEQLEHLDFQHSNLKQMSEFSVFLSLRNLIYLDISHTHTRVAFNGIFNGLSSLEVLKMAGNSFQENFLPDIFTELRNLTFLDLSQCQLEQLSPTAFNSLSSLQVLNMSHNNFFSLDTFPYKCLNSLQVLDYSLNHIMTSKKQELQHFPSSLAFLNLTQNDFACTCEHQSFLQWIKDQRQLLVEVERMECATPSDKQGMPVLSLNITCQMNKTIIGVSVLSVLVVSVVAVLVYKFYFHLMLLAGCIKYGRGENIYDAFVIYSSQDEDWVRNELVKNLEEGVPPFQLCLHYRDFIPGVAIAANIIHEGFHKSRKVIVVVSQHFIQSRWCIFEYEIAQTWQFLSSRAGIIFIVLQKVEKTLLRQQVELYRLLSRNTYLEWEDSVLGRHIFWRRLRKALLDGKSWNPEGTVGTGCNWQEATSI
UniProt Q9NP99, residues 21-234: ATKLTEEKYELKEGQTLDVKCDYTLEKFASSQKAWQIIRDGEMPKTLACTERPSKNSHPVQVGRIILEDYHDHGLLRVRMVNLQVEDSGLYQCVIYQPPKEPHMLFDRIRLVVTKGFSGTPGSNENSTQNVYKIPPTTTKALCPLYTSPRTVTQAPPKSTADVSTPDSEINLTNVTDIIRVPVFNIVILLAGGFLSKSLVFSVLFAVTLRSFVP

How the values were obtained:
[1] = target: Toll-like receptor 2 (human (endogenous in HEnEpCs)) (UniProt O60603); assay: co-IP; HEnEpC lysate (section heading: LPS-challenged HEnEpCs); cold lysis buffer for IP; anti-TREM1, anti-TLR2, anti-TLR4 or control IgG (1 µg) plus Protein A/G beads; beads washed three times with PBS; Western blot
[2] = target: Toll-like receptor 4 (human (endogenous in HEnEpCs)) (UniProt O00206); assay: as above

Substance: Triggering receptor expressed on myeloid cells 1 (from UniProt Q9NP99 21-234)
- binding [1]: binds
- binding [2]: binds
